{"source": "PubChem BioAssay AID652272 (Drosophila RNAi Screening Center, 2013)", "assay": "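Genome-wide knock-down search for components of Hedgehog signalling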 (primary screen)", "cells": "Drosophila clone 8 (Cl8) cells", "reagents": "long dsRNA against Drosophila genes", "detection": "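Plate reader light from a firefly reporter under a ptc promoter fragment that responds to Hedgehog, with Renilla light as transfection reference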", "direction": "firefly Hh reporter signal: higher = more ptc reporter light; Renilla reference signal: higher = more Renilla control light", "call rule": "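Called a hit if the two-replicate mean z-score lies below -2 or above +3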", "meaning of the calls": "active = hit: reporter lowered or raised; inactive = not a hit", "note": "The deposit covers about 21,000 reagents; below is a random part of those that have a named target and a result. Of all reagents, 503 (2.4%) got an active call. 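Raw plate light values, not normalised; calls rest on replicate z-scores that were not deposited; hits include reporter decreases as well as increases.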 Not given: the amount of reagent, the time to read-out."}
{"Target gene": "r-cup", "amplicon": "DRSC20475", "firefly Hh reporter signal, replicate 1": 90696, "firefly Hh reporter signal, replicate 2": 1.26e5, "Renilla reference signal, replicate 1": 3649, "Renilla reference signal, replicate 2": 5856, "Call": "inactive"}
{"Target gene": "Slik", "amplicon": "DRSC04471", "firefly Hh reporter signal, replicate 1": 66892, "firefly Hh reporter signal, replicate 2": 36291, "Renilla reference signal, replicate 1": 3325, "Renilla reference signal, replicate 2": 1609, "Call": "inactive"}
{"Target gene": "CG18467", "amplicon": "DRSC06758", "firefly Hh reporter signal, replicate 1": 74932, "firefly Hh reporter signal, replicate 2": 50460, "Renilla reference signal, replicate 1": 2048, "Renilla reference signal, replicate 2": 3384, "Call": "inactive"}
{"Target gene": "CG31125", "amplicon": "DRSC13684", "firefly Hh reporter signal, replicate 1": 48440, "firefly Hh reporter signal, replicate 2": 1.47e5, "Renilla reference signal, replicate 1": 12616, "Renilla reference signal, replicate 2": 4317, "Call": "active"}
{"Target gene": "CG7326", "amplicon": "DRSC20037", "firefly Hh reporter signal, replicate 1": 54080, "firefly Hh reporter signal, replicate 2": 1.56e5, "Renilla reference signal, replicate 1": 1172, "Renilla reference signal, replicate 2": 7744, "Call": "inactive"}
{"Target gene": "knk", "amplicon": "DRSC15993", "firefly Hh reporter signal, replicate 1": 92503, "firefly Hh reporter signal, replicate 2": 81684, "Renilla reference signal, replicate 1": 2917, "Renilla reference signal, replicate 2": 2592, "Call": "inactive"}
{"Target gene": "Ucp4C", "amplicon": "DRSC03132", "firefly Hh reporter signal, replicate 1": 1.26e5, "firefly Hh reporter signal, replicate 2": 74504, "Renilla reference signal, replicate 1": 3275, "Renilla reference signal, replicate 2": 7361, "Call": "inactive"}

2 of these entries, reformatted:
Target gene | amplicon | firefly Hh reporter signal, replicate 1 | firefly Hh reporter signal, replicate 2 | Renilla reference signal, replicate 1 | Renilla reference signal, replicate 2 | Call
r-cup | DRSC20475 | 90696 | 1.26e5 | 3649 | 5856 | inactive
Slik | DRSC04471 | 66892 | 36291 | 3325 | 1609 | inactive

The list goes on.
{"Target gene": "CG10274", "amplicon": "DRSC09716", "firefly Hh reporter signal, replicate 1": 77980, "firefly Hh reporter signal, replicate 2": 66421, "Renilla reference signal, replicate 1": 4340, "Renilla reference signal, replicate 2": 2536, "Call": "inactive"}
{"Target gene": "CanB2", "amplicon": "DRSC07355", "firefly Hh reporter signal, replicate 1": 7.21e5, "firefly Hh reporter signal, replicate 2": 1.30e5, "Renilla reference signal, replicate 1": 5665, "Renilla reference signal, replicate 2": 5665, "Call": "inactive"}
{"Target gene": "Or10a", "amplicon": "DRSC20264", "firefly Hh reporter signal, replicate 1": 92923, "firefly Hh reporter signal, replicate 2": 2.69e5, "Renilla reference signal, replicate 1": 2979, "Renilla reference signal, replicate 2": 9501, "Call": "inactive"}
{"Target gene": "metro", "amplicon": "DRSC06341", "firefly Hh reporter signal, replicate 1": 1.06e5, "firefly Hh reporter signal, replicate 2": 55254, "Renilla reference signal, replicate 1": 3872, "Renilla reference signal, replicate 2": 2059, "Call": "inactive"}
{"Target gene": "metro", "amplicon": "DRSC06725", "firefly Hh reporter signal, replicate 1": 85154, "firefly Hh reporter signal, replicate 2": 62678, "Renilla reference signal, replicate 1": 1561, "Renilla reference signal, replicate 2": 4340, "Call": "inactive"}
{"Target gene": "Tcs4", "amplicon": "DRSC19587", "firefly Hh reporter signal, replicate 1": 1.18e5, "firefly Hh reporter signal, replicate 2": 1.15e5, "Renilla reference signal, replicate 1": 2944, "Renilla reference signal, replicate 2": 3091, "Call": "inactive"}
{"Target gene": "CG31806", "amplicon": "DRSC02787", "firefly Hh reporter signal, replicate 1": 1.04e5, "firefly Hh reporter signal, replicate 2": 55659, "Renilla reference signal, replicate 1": 2733, "Renilla reference signal, replicate 2": 5351, "Call": "inactive"}
{"Target gene": "CG32523", "amplicon": "DRSC20510", "firefly Hh reporter signal, replicate 1": 77665, "firefly Hh reporter signal, replicate 2": 2.43e5, "Renilla reference signal, replicate 1": 2076, "Renilla reference signal, replicate 2": 10147, "Call": "inactive"}
{"Target gene": "CG15818", "amplicon": "DRSC02505", "firefly Hh reporter signal, replicate 1": 1.28e5, "firefly Hh reporter signal, replicate 2": 1.20e5, "Renilla reference signal, replicate 1": 6512, "Renilla reference signal, replicate 2": 4954, "Call": "inactive"}
{"Target gene": "CngB", "amplicon": "DRSC04297", "firefly Hh reporter signal, replicate 1": 1.77e5, "firefly Hh reporter signal, replicate 2": 1.14e5, "Renilla reference signal, replicate 1": 6284, "Renilla reference signal, replicate 2": 4515, "Call": "inactive"}
{"Target gene": "prg", "amplicon": "DRSC03324", "firefly Hh reporter signal, replicate 1": 1.13e5, "firefly Hh reporter signal, replicate 2": 52875, "Renilla reference signal, replicate 1": 1624, "Renilla reference signal, replicate 2": 4098, "Call": "active"}
{"Target gene": "Edem1", "amplicon": "DRSC18573", "firefly Hh reporter signal, replicate 1": 69931, "firefly Hh reporter signal, replicate 2": 61405, "Renilla reference signal, replicate 1": 1906, "Renilla reference signal, replicate 2": 2053, "Call": "inactive"}
{"Target gene": "CG13101", "amplicon": "DRSC02201", "firefly Hh reporter signal, replicate 1": 87568, "firefly Hh reporter signal, replicate 2": 77113, "Renilla reference signal, replicate 1": 3765, "Renilla reference signal, replicate 2": 3189, "Call": "inactive"}
{"Target gene": "X11Lbeta", "amplicon": "DRSC18156", "firefly Hh reporter signal, replicate 1": 66778, "firefly Hh reporter signal, replicate 2": 2.26e5, "Renilla reference signal, replicate 1": 2205, "Renilla reference signal, replicate 2": 8741, "Call": "inactive"}
{"Target gene": "X11Lbeta", "amplicon": "DRSC18158", "firefly Hh reporter signal, replicate 1": 68410, "firefly Hh reporter signal, replicate 2": 1.96e5, "Renilla reference signal, replicate 1": 2314, "Renilla reference signal, replicate 2": 7539, "Call": "inactive"}
